Measured values: article PMC3382170
Results are given in words; binding and its absence hold for the method and conditions named. In cells and extracts the contact can be indirect. Some binding calls cover weakened binding; strength is not graded here. Each block holds one molecule with its values, some of them ahead of it.

By UniProt entry, the sequences of proteins in these tests, tags left out.
UniProt Q60749: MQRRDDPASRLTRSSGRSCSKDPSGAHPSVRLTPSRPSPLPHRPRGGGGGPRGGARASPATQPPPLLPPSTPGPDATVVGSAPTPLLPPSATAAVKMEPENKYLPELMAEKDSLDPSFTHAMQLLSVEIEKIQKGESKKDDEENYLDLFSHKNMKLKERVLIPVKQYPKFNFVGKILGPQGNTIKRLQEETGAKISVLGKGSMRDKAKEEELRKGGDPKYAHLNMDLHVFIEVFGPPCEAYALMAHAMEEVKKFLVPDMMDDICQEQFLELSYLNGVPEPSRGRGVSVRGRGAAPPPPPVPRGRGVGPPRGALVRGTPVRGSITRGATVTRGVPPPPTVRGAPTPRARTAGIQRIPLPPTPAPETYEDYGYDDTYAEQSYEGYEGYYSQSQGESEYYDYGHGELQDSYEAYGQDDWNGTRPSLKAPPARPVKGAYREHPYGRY
UniProt Q8R418: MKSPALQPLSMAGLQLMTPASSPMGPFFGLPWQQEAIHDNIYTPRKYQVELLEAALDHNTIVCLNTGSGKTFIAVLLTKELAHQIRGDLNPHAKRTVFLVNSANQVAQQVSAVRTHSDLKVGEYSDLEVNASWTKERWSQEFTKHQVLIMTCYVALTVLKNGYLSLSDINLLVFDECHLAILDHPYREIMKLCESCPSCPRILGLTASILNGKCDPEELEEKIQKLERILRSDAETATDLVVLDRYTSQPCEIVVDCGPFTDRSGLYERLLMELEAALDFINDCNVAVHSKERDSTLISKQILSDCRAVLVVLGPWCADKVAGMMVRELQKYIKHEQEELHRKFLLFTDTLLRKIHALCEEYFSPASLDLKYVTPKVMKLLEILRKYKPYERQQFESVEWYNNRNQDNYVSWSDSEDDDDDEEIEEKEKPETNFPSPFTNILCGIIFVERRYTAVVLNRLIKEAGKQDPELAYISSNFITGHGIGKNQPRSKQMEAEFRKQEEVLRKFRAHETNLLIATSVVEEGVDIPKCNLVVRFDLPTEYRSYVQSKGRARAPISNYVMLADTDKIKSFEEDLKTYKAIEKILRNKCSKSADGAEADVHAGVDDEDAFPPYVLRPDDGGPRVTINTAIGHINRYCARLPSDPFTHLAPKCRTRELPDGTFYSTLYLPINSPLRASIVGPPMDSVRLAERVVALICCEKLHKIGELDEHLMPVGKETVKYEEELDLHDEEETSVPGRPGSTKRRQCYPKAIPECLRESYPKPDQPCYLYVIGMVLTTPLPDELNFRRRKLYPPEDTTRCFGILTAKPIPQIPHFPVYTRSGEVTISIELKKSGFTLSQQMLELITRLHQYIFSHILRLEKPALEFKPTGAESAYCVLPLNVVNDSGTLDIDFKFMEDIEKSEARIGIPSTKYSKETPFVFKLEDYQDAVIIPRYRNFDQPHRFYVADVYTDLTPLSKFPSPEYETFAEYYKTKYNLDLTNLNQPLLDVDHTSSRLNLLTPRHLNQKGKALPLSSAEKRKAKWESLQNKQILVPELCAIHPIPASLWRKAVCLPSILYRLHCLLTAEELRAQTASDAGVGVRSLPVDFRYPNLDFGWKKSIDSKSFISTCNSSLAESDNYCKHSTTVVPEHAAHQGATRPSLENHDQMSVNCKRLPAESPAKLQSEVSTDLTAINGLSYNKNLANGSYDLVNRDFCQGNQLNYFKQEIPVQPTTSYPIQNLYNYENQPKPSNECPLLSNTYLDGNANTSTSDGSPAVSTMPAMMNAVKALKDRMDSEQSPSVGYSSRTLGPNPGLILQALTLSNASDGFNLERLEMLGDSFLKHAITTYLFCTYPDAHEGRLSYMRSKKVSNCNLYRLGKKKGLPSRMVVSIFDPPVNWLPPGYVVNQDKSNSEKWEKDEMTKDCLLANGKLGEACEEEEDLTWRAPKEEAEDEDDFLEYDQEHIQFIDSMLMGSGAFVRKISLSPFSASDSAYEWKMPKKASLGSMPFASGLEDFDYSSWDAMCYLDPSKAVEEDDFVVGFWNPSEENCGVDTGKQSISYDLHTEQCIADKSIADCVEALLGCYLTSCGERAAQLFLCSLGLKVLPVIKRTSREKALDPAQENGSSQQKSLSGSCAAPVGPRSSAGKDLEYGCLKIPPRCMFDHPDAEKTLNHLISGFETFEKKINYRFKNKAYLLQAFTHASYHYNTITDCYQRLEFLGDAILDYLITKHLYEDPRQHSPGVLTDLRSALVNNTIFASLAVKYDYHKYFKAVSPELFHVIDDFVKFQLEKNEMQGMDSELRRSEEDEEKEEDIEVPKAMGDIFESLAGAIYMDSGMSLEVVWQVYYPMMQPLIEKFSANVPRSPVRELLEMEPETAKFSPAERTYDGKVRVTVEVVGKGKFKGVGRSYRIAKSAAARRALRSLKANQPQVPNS

How the values were obtained:
[1] = target: SAM68 (mouse (endogenous in male germ cells)) (UniProt Q60749); experiment: co-IP; extracts of a mouse germ cell fraction enriched in secondary spermatocytes; rabbit anti-SAM68, anti-DROSHA or control IgGs (5 ug), protein A-Sepharose, 3 h at 4°C; 100 mM NaCl, 10 mM MgCl2, 30 mM Tris-HCl pH 7.4, 1 mM DTT, 0.5% Triton X-100; Western blot
[2] = target: SAM68 (mouse (endogenous in male germ cells)) (UniProt Q60749); experiment: co-IP; co-immunoprecipitation performed in the presence of RNase in the germ cell extract; Western blot; precipitating antibody not told
[3] = target: T1, DROSHA (mouse (endogenous in male germ cells)) (UniProt Q5HZJ0); experiment: co-IP; extracts of a mouse germ cell fraction enriched in secondary spermatocytes; rabbit anti-SAM68, anti-DROSHA or control IgGs (5 ug), protein A-Sepharose, 3 h at 4°C; 100 mM NaCl, 10 mM MgCl2, 30 mM Tris-HCl pH 7.4, 1 mM DTT, 0.5% Triton X-100; Western blot
T1 sequence: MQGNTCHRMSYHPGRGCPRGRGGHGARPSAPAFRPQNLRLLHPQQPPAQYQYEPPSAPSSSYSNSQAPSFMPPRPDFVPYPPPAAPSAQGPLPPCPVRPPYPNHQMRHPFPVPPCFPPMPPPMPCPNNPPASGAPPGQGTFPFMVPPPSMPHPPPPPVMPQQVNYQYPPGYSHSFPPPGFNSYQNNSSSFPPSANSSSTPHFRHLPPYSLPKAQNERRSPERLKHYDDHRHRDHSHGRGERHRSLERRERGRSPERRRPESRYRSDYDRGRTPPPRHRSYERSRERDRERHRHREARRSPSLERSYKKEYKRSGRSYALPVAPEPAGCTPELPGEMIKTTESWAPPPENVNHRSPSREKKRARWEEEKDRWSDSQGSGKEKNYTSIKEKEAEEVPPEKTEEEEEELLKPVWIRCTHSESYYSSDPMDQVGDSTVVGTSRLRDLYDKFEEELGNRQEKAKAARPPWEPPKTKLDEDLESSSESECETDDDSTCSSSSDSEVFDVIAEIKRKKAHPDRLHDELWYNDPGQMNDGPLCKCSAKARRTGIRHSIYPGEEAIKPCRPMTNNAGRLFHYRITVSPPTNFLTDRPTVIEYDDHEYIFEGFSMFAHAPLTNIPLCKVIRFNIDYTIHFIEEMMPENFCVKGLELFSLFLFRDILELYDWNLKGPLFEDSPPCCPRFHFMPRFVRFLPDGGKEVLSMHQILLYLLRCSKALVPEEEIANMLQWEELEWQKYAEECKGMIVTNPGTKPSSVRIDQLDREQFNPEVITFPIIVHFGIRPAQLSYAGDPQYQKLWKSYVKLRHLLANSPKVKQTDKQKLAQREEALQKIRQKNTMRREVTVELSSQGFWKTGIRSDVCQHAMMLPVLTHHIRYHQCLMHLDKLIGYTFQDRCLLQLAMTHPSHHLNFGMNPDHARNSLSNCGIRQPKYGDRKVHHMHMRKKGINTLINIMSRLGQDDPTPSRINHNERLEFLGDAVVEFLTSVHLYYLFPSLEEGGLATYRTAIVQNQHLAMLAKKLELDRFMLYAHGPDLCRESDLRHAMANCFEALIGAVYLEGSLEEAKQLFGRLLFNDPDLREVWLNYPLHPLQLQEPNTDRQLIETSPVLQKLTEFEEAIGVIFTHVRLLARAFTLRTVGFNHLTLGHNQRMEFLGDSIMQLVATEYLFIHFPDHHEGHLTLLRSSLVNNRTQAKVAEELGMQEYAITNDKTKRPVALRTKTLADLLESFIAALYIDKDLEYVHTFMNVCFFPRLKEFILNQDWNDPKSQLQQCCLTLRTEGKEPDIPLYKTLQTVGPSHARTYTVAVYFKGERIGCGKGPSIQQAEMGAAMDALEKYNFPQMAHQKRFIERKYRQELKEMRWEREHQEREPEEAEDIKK

[4] = target: T1, DROSHA (mouse (endogenous in male germ cells)); experiment: co-IP; co-immunoprecipitation performed in the presence of RNase in the germ cell extract; Western blot; precipitating antibody not told
[5] = target: SAM68 (mouse (endogenous in male germ cells)) (UniProt Q60749); experiment: condition: only in extracts of primary spermatocytes and of round spermatids; co-IP; extracts of mouse primary spermatocytes and of round spermatids; anti-SAM68 antibody, protein A-Sepharose; Western blot with anti-MVH
[6] = target: SAM68 (mouse (endogenous in male germ cells)) (UniProt Q60749); experiment: co-IP; extracts of a mouse germ cell fraction enriched in secondary spermatocytes; rabbit anti-SAM68, anti-DROSHA or control IgGs (5 ug), protein A-Sepharose, 3 h at 4°C; 100 mM NaCl, 10 mM MgCl2, 30 mM Tris-HCl pH 7.4, 1 mM DTT, 0.5% Triton X-100; Western blot; remark: listed apart in the source

- binding [1]: binds
- binding [2]: binds
Molecule: DICER (from UniProt Q8R418 1-1916) (enzyme)

- binding [3]: binds
- binding [4]: binds
Molecule: SAM68 (from UniProt Q60749 1-443)

- binding [5]: no binding
- binding [6]: binds
B1: MVH (Mouse VASA Homologue) (protein, UniProt Q61496 1-702)
chain: MGDEDWEAEILKPHVSSYVPVFEKDKYSSGANGDTFNRTSASSDIGESSKKENTSTTGGFGRGKGFGNRGFLNNKFEEGDSSGFWKESNNDCEDNQTRSRGFSKRGGCQDGNDSEASGPFRRGGRGSFRGCRGGFGLGRPNSESDQDQGTQRGGGLFGSRKPAASDSGNGDTYQSRSGSGRGGYKGLNEEVVTGSGKNSWKSETEGGESSDSQGPKVTYIPPPPPEDEDSIFAHYQTGINFDKYDTILVEVSGHDAPPAILTFEEANLCQTLNNNIAKAGYTKLTPVQKYSIPIVLAGRDLMACAQTGSGKTAAFLLPILAHMMRDGITASRFKELQEPECIIVAPTRELINQIYLEARKFSFGTCVRAVVIYGGTQFGHSVRQIVQGCNILCATPGRLMDIIGKEKIGLKQVKYLVLDEADRMLDMGFGPEMKKLISCPGMPSKEQRQTLLFSATFPEEIQRLAGDFLKSSYLFVAVGQVGGACRDVQQTILQVGQYSKREKLVEILRNIGDERTMVFVETKKKADFIATFLCQEKISTTSIHGDREQREREQALGDFRCGKCPVLVATSVAARGLDIENVQHVINFDLPSTIDEYVHRIGRTGRCGNTGRAISFFDTDSDNHLAQPLVKVLSDAQQDVPAWLEEIAFSTYVPPSFSSSTRGGAVFASVDTRKNYQGKHTLNTAGISSSQAPNPVDDESWD
